Test results reported in the supplement of paper PMC10077471.
Over roughly 1,900 compounds, “excess over highest single agent (ExcessHSA) synergy score, 6x6 matrix” has its median near -83; the lowest 2% begin near -370. The list shows a part of the results.

system: NCI-H446; experiment: excess over highest single agent (ExcessHSA) synergy score, 6x6 matrix; higher = less synergy (more negative = stronger synergy); settings: 72 h; CellTiter-Glo viability

| SMILES | excess over highest single agent |
| --- | --- |
| Cc1ccc2c(c1)c1c(n2CCc2ccc(C)nc2)CCN(C)C1 + Cc1sc2c(c1C)C(c1ccc(Cl)cc1)=N[C@@H](CC(=O)OC(C)(C)C)c1nnc(C)n1-2 [NCGC00250412-19] | -121 |
| CC[C@H](c1ccc(O)cc1)[C@@H](CC)c1ccc(O)cc1 + Cc1sc2c(c1C)C(c1ccc(Cl)cc1)=N[C@@H](CC(=O)OC(C)(C)C)c1nnc(C)n1-2 [NCGC00250412-19] | -134 |
| N#CC1(c2ccc(NC(=O)c3cccnc3NCc3ccncc3)cc2)CCCC1 + Cc1sc2c(c1C)C(c1ccc(Cl)cc1)=N[C@@H](CC(=O)OC(C)(C)C)c1nnc(C)n1-2 [NCGC00250412-19] | -74.9 |
| C[C@H](Cc1ccc(O)c(O)c1)[C@@H](C)Cc1ccc(O)c(O)c1 + Cc1sc2c(c1C)C(c1ccc(Cl)cc1)=N[C@@H](CC(=O)OC(C)(C)C)c1nnc(C)n1-2 [NCGC00250412-19] | -373 |
| O=C(/C=C/c1cccnc1)NCCCCC1CCN(C(=O)c2ccccc2)CC1 + Cc1sc2c(c1C)C(c1ccc(Cl)cc1)=N[C@@H](CC(=O)OC(C)(C)C)c1nnc(C)n1-2 [NCGC00250412-19] | -55.6 |
| NCCc1ccc(O)c(O)c1 + Cc1sc2c(c1C)C(c1ccc(Cl)cc1)=N[C@@H](CC(=O)OC(C)(C)C)c1nnc(C)n1-2 [NCGC00250412-19] | 1.43 |
| CC1(C)Cc2c(sc(NC(=S)NC(=O)c3ccccc3)c2C(=O)O)CO1 + Cc1sc2c(c1C)C(c1ccc(Cl)cc1)=N[C@@H](CC(=O)OC(C)(C)C)c1nnc(C)n1-2 [NCGC00250412-19] | 46.2 |
| COc1c(Cl)cc2c([nH]c3cnccc32)c1NC(=O)c1cccnc1C + Cc1sc2c(c1C)C(c1ccc(Cl)cc1)=N[C@@H](CC(=O)OC(C)(C)C)c1nnc(C)n1-2 [NCGC00250412-19] | -170 |
| C=C1/C(=C\C=C2/CCC[C@]3(C)[C@@H]([C@H](C)/C=C/C=C/C(O)(CC)CC)CC[C@@H]23)C[C@@H](O)C[C@@H]1O + Cc1sc2c(c1C)C(c1ccc(Cl)cc1)=N[C@@H](CC(=O)OC(C)(C)C)c1nnc(C)n1-2 [NCGC00250412-19] | 84.4 |
| Cn1cnc2c(F)c(Nc3ccc(Br)cc3Cl)c(C(=O)NOCCO)cc21 + Cc1sc2c(c1C)C(c1ccc(Cl)cc1)=N[C@@H](CC(=O)OC(C)(C)C)c1nnc(C)n1-2 [NCGC00250412-19] | -55 |
| Nc1nc(N)c2nc(-c3cccc(O)c3)c(-c3cccc(O)c3)nc2n1 + Cc1sc2c(c1C)C(c1ccc(Cl)cc1)=N[C@@H](CC(=O)OC(C)(C)C)c1nnc(C)n1-2 [NCGC00250412-19] | 117 |
| CC1(C)O[C@@H]2C[C@H]3[C@@H]4C[C@H](F)C5=CC(=O)C=C[C@]5(C)[C@H]4[C@@H](O)C[C@]3(C)[C@]2(C(=O)CO)O1 + Cc1sc2c(c1C)C(c1ccc(Cl)cc1)=N[C@@H](CC(=O)OC(C)(C)C)c1nnc(C)n1-2 [NCGC00250412-19] | -48.9 |
| COC1(C[S+]([O-])c2ccccc2)CCN(CCc2c[nH]c3ccc(F)cc23)CC1 (configuration not stated) + Cc1sc2c(c1C)C(c1ccc(Cl)cc1)=N[C@@H](CC(=O)OC(C)(C)C)c1nnc(C)n1-2 [NCGC00250412-19] | -115 |
| CCCC[N+]1(C)[C@@H]2C[C@@H](OC(=O)[C@H](CO)c3ccccc3)C[C@H]1[C@@H]1O[C@@H]12 (some centres not stated) + Cc1sc2c(c1C)C(c1ccc(Cl)cc1)=N[C@@H](CC(=O)OC(C)(C)C)c1nnc(C)n1-2 [NCGC00250412-19] | -86.9 |
| CN(Cc1cc(Br)cc(Br)c1N)C1CCCCC1 + Cc1sc2c(c1C)C(c1ccc(Cl)cc1)=N[C@@H](CC(=O)OC(C)(C)C)c1nnc(C)n1-2 [NCGC00250412-19] | -97.4 |
| Clc1ccc(-c2nc3sccn3c2C=NOCc2ccc(Cl)c(Cl)c2)cc1 + Cc1sc2c(c1C)C(c1ccc(Cl)cc1)=N[C@@H](CC(=O)OC(C)(C)C)c1nnc(C)n1-2 [NCGC00250412-19] | -98.8 |
| Cn1c(N2CCCCS2(=O)=O)nc(C(=O)NCc2ccc(F)cc2)c(O)c1=O + Cc1sc2c(c1C)C(c1ccc(Cl)cc1)=N[C@@H](CC(=O)OC(C)(C)C)c1nnc(C)n1-2 [NCGC00250412-19] | 5.46 |
| C[C@H]1COC2(CCN(c3nc(=O)c4cc(C(F)(F)F)cc([N+](=O)[O-])c4s3)CC2)O1 + Cc1sc2c(c1C)C(c1ccc(Cl)cc1)=N[C@@H](CC(=O)OC(C)(C)C)c1nnc(C)n1-2 [NCGC00250412-19] | 70.9 |
| Cn1cnc(=N)c2[nH]cnc21 + Cc1sc2c(c1C)C(c1ccc(Cl)cc1)=N[C@@H](CC(=O)OC(C)(C)C)c1nnc(C)n1-2 [NCGC00250412-19] | -164 |

As a working copy, part of the list above:

| SMILES | excess over highest single agent |
| --- | --- |
| C[C@H]1COC2(CCN(c3nc(=O)c4cc(C(F)(F)F)cc([N+](=O)[O-])c4s3)CC2)O1 + Cc1sc2c(c1C)C(c1ccc(Cl)cc1)=N[C@@H](CC(=O)OC(C)(C)C)c1nnc(C)n1-2 [NCGC00250412-19] | 70.9 |
| Cn1cnc(=N)c2[nH]cnc21 + Cc1sc2c(c1C)C(c1ccc(Cl)cc1)=N[C@@H](CC(=O)OC(C)(C)C)c1nnc(C)n1-2 [NCGC00250412-19] | -164 |

Further results follow.

| SMILES | excess over highest single agent |
| --- | --- |
| Cc1ccc(C(=O)N(CCCN)[C@@H](c2oc3cc(Cl)ccc3c(=O)c2Cc2ccccc2)C(C)C)cc1 + Cc1sc2c(c1C)C(c1ccc(Cl)cc1)=N[C@@H](CC(=O)OC(C)(C)C)c1nnc(C)n1-2 [NCGC00250412-19] | -95.5 |
| Cc1cccc(C)c1NC(=O)CN1CCCC1=O + Cc1sc2c(c1C)C(c1ccc(Cl)cc1)=N[C@@H](CC(=O)OC(C)(C)C)c1nnc(C)n1-2 [NCGC00250412-19] | -220 |
| C=CC[N+]1([C@H]2C[C@H]3[C@@H]4CC[C@H]5C[C@H](O)[C@@H](N6CCOCC6)C[C@]5(C)[C@H]4CC[C@]3(C)[C@H]2OC(C)=O)CCCC1 + Cc1sc2c(c1C)C(c1ccc(Cl)cc1)=N[C@@H](CC(=O)OC(C)(C)C)c1nnc(C)n1-2 [NCGC00250412-19] | 27.4 |
| CC(C)(C)NC(=O)[C@H]1CC[C@H]2[C@@H]3CC[C@H]4NC(=O)C=C[C@]4(C)[C@H]3CC[C@]12C + Cc1sc2c(c1C)C(c1ccc(Cl)cc1)=N[C@@H](CC(=O)OC(C)(C)C)c1nnc(C)n1-2 [NCGC00250412-19] | 58.4 |
| COc1ccc(CCC(=O)Nc2nc3ccc(Cl)cc3s2)cc1OC + Cc1sc2c(c1C)C(c1ccc(Cl)cc1)=N[C@@H](CC(=O)OC(C)(C)C)c1nnc(C)n1-2 [NCGC00250412-19] | 74.6 |
| COc1ccc(-c2cc3nccn3c(Nc3ncccc3C(N)=O)n2)cc1OC + Cc1sc2c(c1C)C(c1ccc(Cl)cc1)=N[C@@H](CC(=O)OC(C)(C)C)c1nnc(C)n1-2 [NCGC00250412-19] | -76.6 |
| C=C1C(=O)O[C@H]2[C@H]1CC/C(C)=C/CC[C@@]1(C)O[C@@H]21 + Cc1sc2c(c1C)C(c1ccc(Cl)cc1)=N[C@@H](CC(=O)OC(C)(C)C)c1nnc(C)n1-2 [NCGC00250412-19] | -213 |
| C[C@]12CC[C@H](O)CC1=CC[C@@H]1[C@@H]2CC[C@]2(C)C(c3cccnc3)=CC[C@@H]12 + Cc1sc2c(c1C)C(c1ccc(Cl)cc1)=N[C@@H](CC(=O)OC(C)(C)C)c1nnc(C)n1-2 [NCGC00250412-19] | -23.9 |
| COc1ccc(CCC(=O)c2c(O)cc(O[C@@H]3O[C@H](CO)[C@@H](O)[C@H](O)[C@H]3O[C@@H]3O[C@@H](C)[C@H](O)[C@@H](O)[C@H]3O)cc2O)cc1O + Cc1sc2c(c1C)C(c1ccc(Cl)cc1)=N[C@@H](CC(=O)OC(C)(C)C)c1nnc(C)n1-2 [NCGC00250412-19] | 2.7 |
| O=[N+]([O-])c1cn2c(n1)OC[C@@H](OCc1ccc(OC(F)(F)F)cc1)C2 + Cc1sc2c(c1C)C(c1ccc(Cl)cc1)=N[C@@H](CC(=O)OC(C)(C)C)c1nnc(C)n1-2 [NCGC00250412-19] | 2.42 |
| Cn1nnc2c(C(N)=O)ncn2c1=O + Cc1sc2c(c1C)C(c1ccc(Cl)cc1)=N[C@@H](CC(=O)OC(C)(C)C)c1nnc(C)n1-2 [NCGC00250412-19] | -118 |
| CC[C@@H](C(=O)[C@@H](C)[C@@H](O)[C@H](C)[C@@H]1O[C@@H]([C@@H](CC)C(=O)O)CC[C@@H]1C)[C@H]1O[C@]2(C=C[C@@H](O)[C@]3(CC[C@@](C)([C@H]4CC[C@](O)(CC)[C@H](C)O4)O3)O2)[C@H](C)C[C@@H]1C + Cc1sc2c(c1C)C(c1ccc(Cl)cc1)=N[C@@H](CC(=O)OC(C)(C)C)c1nnc(C)n1-2 [NCGC00250412-19] | -237 |
| O=C(O)C(=O)c1cn(Cc2ccccc2)c2ccc(-c3ccc(OC(F)(F)F)cc3)cc12 + Cc1sc2c(c1C)C(c1ccc(Cl)cc1)=N[C@@H](CC(=O)OC(C)(C)C)c1nnc(C)n1-2 [NCGC00250412-19] | -25.5 |
| Cc1[nH]nc2ccc(-c3cncc(OC[C@@H](N)Cc4ccccc4)c3)cc12 + Cc1sc2c(c1C)C(c1ccc(Cl)cc1)=N[C@@H](CC(=O)OC(C)(C)C)c1nnc(C)n1-2 [NCGC00250412-19] | 5.66 |
| CC(C)[C@H](O)C(=O)N[C@@H](C)C(=O)N[C@@H]1C(=O)N(C)CCc2ccccc21 + Cc1sc2c(c1C)C(c1ccc(Cl)cc1)=N[C@@H](CC(=O)OC(C)(C)C)c1nnc(C)n1-2 [NCGC00250412-19] | -262 |
| CSCC[C@H](NC(=O)[C@H](Cc1ccccc1)NC(=O)CNC(=O)CNC(=O)[C@@H](N)Cc1ccc(O)cc1)C(=O)O + Cc1sc2c(c1C)C(c1ccc(Cl)cc1)=N[C@@H](CC(=O)OC(C)(C)C)c1nnc(C)n1-2 [NCGC00250412-19] | -122 |
| N#Cc1ccc(NC(=O)Nc2ccccc2Br)c2n[nH]nc12 + Cc1sc2c(c1C)C(c1ccc(Cl)cc1)=N[C@@H](CC(=O)OC(C)(C)C)c1nnc(C)n1-2 [NCGC00250412-19] | -69.3 |
| COc1cc(CCc2cc(NC(=O)c3ccc(N4CC(C)NC(C)C4)cc3)n[nH]2)cc(OC)c1 (configuration not stated) + Cc1sc2c(c1C)C(c1ccc(Cl)cc1)=N[C@@H](CC(=O)OC(C)(C)C)c1nnc(C)n1-2 [NCGC00250412-19] | -88.8 |
